Article PMC6974715
No constants are given. Whether binding was seen depends on the method and setting. For part of these data: Binding seen in cells or lysates may run through a third protein. Some results given as binding are weak or reduced against the parent protein; the word gives no strength. Values belong to the substance of their own block, whether it stands above or below them.

Sequences of proteins named here, by UniProt entry; tags and fusion partners are left off. A change or cut given only in a name is not applied to a line headed by its entry. Residues count along the entry.
UniProt Q9BXW4, residues 1-126: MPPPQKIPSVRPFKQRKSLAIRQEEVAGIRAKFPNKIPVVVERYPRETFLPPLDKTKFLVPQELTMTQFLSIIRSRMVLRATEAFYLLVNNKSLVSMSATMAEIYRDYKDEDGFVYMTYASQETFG
UniProt P54252: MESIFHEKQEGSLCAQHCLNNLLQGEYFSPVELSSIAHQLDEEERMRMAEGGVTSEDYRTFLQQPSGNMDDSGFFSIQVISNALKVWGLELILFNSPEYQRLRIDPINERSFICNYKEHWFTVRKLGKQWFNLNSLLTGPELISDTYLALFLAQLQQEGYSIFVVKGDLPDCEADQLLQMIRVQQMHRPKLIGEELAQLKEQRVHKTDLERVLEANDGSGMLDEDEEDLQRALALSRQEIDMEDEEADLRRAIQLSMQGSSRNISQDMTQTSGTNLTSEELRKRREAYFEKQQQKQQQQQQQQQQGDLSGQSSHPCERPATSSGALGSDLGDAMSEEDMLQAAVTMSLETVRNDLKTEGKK

How the values were obtained:
GST-GABARAP = GST-GABARAP (UniProt O95166); assay: pull-down; lysates of HeLa ^10xHisATXN3^HA incubated with purified recombinant GST-tagged Atg8 proteins immobilized on glutathione beads; immunoblot; only the target purified
GST-LC3C = GST-LC3C (UniProt Q9BXW4); assay: as above
[1] = target: Recombinant GABARAP immobilized on agarose beads (UniProt O95166); assay: pull-down; HeLa cell lysates (dox-inducible ^10xHisATXN3^HA, or transfected GFP-ATXN3 constructs) incubated with recombinant GABARAP or LC3A immobilized on agarose beads (blocked empty beads as control); immunoblot; only the target purified
[2] = target: Recombinant GABARAP immobilized on agarose beads (UniProt O95166); assay: pull-down; purified recombinant ATXN3 incubated with recombinant GABARAP or LC3A immobilized on agarose beads (blocked empty beads as control); immunoblot; both purified
[3] = target: Recombinant LC3A immobilized on agarose beads (UniProt Q9H492); assay: pull-down; HeLa cell lysates (dox-inducible ^10xHisATXN3^HA, or transfected GFP-ATXN3 constructs) incubated with recombinant GABARAP or LC3A immobilized on agarose beads (blocked empty beads as control); immunoblot; only the target purified

Substance: ATXN3 with N-terminal histidine (10xHis) and C-terminal hemagglutinin (HA) epitope tags (from UniProt P54252-2 1-361) (enzyme)
binding (GST-GABARAP): binds
binding (GST-LC3C): binds
binding [1]: binds

binding [1]: binds
Substance: Endogenous ATXN3 (from UniProt P54252 1-361) (enzyme)

binding [2]: binds
Substance: Purified, recombinant ATXN3 (from UniProt P54252-2 1-361) (enzyme)

binding [3]: binds
Substance: p62 (from UniProt Q13501 1-440)
